Literature values, collected in patent US20210000842A1, “TETRACYCLINE MANAGEMENT OF EGFR INHIBITOR ASSOCIATED DERMATOSES” (Foamix Pharmaceuticals Ltd., priority 2015, published 2021).
At least one compound was matched to its structure with a doubt left.

Tested on: EGFR inhibitor-induced rash
Conditions: cited from earlier work

Structure (SMILES)	Total facial lesion count vs placebo (prophylactic oral, metastatic CRC patients on cetuximab, weeks 1-4)	Grade 2 rash reported at week 4 (oral 500 mg twice daily for 4 weeks, patients starting EGFRI therapy, placebo 55%)
CN(C)c1ccc(O)c2c1C[C@H]1C[C@H]3[C@H](N(C)C)C(O)=C(C(N)=O)C(=O)[C@@]3(O)C(O)=C1C2=O [minocycline]	significantly lower	–
CN(C)[C@@H]1C(O)=C(C(N)=O)C(=O)[C@@]2(O)C(O)=C3C(=O)c4c(O)cccc4[C@@](C)(O)[C@H]3C[C@@H]12 [tetracycline]	–	17%
